Experimental data published in paper PMC6825175.
These are yes or no findings as the source states them, for the method shown. Binding seen in cells or lysates may run through a third protein. Some entries that bind do so weakly or less than the wild type.

The chains behind the UniProt entries cited, without tags or fusion partners. Residues count along the entry.
UniProt P09055, residues 21-798: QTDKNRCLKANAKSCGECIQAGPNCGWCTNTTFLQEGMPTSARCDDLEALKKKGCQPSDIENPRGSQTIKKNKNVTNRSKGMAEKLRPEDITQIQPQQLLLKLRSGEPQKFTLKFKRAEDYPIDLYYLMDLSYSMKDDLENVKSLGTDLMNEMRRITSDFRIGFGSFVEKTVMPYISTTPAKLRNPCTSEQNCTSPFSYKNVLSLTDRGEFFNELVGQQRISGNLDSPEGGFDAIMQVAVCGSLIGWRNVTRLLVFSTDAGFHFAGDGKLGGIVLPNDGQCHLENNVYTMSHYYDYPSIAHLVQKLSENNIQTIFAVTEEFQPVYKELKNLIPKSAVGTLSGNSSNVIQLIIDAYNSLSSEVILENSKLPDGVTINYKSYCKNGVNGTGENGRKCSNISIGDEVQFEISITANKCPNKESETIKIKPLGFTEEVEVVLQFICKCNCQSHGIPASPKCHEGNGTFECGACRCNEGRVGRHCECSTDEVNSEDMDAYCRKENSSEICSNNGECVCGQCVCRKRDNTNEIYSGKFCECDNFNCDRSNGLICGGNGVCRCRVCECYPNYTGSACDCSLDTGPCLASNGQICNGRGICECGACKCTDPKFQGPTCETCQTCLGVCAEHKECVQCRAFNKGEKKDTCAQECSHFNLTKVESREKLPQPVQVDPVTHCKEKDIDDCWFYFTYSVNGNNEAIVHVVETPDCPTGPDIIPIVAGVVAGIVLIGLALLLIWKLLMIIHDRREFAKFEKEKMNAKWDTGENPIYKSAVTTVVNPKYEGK

Biological target: β1 integrin (mouse (endogenous in murine colon)) (UniProt P09055)
Assay: proximity ligation; in situ PLA (DuoLink) on frozen murine colon sections fixed in 4% paraformaldehyde, permeabilised with 0.5% Triton X-100; anti-CD47 antibody with anti-goat plus probe, anti-integrin β1 antibody with probemaker minus; signal when the two proteins are within 40 nm; Cd47-/- colon as negative control

binding: binds
B1: CD47 (protein, UniProt Q61735 19-303)
chain: QLLFSNVNSIEFTSCNETVVIPCIVRNVEAQSTEEMFVKWKLNKSYIFIYDGNKNSTTTDQNFTSAKISVSDLINGIASLKMDKRDAMVGNYTCEVTELSREGKTVIELKNRTVSWFSPNEKILIVIFPILAILLFWGKFGILTLKYKSSHTNKRIILLLVAGLVLTVIVVVGAILLIPGEKPVKNASGLGLIVISTGILILLQYNVFMTAFGMTSFTIAILITQVLGYVLALVGLCLCIMACEPVHGPLLISGLGIIALAELLGLVYMKFVASNQRTIQPPRNR
